Source: paper doi:10.1101/488049
Results are given in words; binding and its absence hold for the method and conditions named. In cells and extracts the contact can be indirect. These calls come from enrichment with a bait or labelling near it, and not all partners need be listed. For some assays here: A no says only that the protein was not detected with the bait. Where a sequence is shown, tags or fusion partners need not be part of it.

How the values were obtained:
[1] = target: T1, KIF1C-BioID2-HA (KIF1C full length) (human) (UniProt O43896); assay: proximity labelling
T1 sequence: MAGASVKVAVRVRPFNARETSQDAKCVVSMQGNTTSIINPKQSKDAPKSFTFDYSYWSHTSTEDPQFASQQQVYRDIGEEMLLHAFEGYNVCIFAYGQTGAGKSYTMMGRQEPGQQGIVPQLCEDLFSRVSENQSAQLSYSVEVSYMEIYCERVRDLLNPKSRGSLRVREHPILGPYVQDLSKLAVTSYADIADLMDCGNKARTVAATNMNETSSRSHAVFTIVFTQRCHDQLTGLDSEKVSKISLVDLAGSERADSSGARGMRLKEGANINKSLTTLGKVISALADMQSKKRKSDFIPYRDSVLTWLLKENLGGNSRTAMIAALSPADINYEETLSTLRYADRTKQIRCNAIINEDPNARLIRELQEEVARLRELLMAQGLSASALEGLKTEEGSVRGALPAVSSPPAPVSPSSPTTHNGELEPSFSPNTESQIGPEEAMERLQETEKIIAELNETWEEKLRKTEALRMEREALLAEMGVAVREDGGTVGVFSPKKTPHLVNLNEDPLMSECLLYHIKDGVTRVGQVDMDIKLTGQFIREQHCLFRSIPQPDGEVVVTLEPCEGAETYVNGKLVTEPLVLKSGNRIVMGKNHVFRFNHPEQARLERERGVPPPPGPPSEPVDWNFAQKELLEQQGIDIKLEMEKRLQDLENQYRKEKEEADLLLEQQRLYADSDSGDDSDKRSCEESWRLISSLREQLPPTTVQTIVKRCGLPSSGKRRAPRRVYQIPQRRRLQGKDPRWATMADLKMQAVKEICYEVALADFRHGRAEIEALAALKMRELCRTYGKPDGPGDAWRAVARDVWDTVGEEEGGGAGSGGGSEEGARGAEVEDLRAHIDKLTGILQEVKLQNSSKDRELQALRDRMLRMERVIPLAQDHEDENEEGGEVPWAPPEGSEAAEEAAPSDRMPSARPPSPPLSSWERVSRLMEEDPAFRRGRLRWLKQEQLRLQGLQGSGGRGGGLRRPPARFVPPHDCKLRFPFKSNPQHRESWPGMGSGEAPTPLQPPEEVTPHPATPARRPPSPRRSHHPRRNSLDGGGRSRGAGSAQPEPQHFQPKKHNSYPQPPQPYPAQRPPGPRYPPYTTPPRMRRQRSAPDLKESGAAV

[2] = target: T2, KIF1CΔ623-825-BioID2-HA (human) (UniProt O43896); assay: proximity labelling
T2 sequence: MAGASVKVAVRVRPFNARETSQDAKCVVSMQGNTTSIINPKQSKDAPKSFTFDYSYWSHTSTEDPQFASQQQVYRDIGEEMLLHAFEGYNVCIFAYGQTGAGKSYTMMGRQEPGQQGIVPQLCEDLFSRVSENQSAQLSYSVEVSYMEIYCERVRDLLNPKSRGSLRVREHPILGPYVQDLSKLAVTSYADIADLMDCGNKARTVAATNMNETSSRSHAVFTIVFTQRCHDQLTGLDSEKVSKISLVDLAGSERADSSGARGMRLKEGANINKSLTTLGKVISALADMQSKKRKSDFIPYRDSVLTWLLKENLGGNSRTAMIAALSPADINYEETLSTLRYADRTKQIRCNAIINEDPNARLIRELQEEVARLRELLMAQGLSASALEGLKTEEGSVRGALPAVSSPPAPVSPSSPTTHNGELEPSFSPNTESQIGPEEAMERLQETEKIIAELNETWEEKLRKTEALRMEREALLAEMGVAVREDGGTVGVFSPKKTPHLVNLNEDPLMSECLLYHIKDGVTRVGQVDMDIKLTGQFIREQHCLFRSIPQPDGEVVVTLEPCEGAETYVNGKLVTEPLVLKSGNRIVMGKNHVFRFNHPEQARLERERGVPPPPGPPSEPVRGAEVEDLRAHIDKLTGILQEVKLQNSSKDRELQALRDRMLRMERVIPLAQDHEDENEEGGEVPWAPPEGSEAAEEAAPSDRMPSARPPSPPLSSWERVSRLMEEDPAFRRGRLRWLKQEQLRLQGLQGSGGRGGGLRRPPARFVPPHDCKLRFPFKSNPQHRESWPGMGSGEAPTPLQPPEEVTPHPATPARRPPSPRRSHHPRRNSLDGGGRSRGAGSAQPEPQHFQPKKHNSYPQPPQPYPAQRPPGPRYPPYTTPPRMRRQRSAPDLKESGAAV

binding [1]: binds
binding [2]: no binding
B1: Hook3 (endogenous, RPE1 cells) (protein, UniProt Q86VS8 1-718)
chain: MFSVESLERAELCESLLTWIQTFNVDAPCQTVEDLTNGVVMAQVLQKIDPAYFDENWLNRIKTEVGDNWRLKISNLKKILKGILDYNHEILGQQINDFTLPDVNLIGEHSDAAELGRMLQLILGCAVNCEQKQEYIQAIMMMEESVQHVVMTAIQELMSKESPVSAGNDAYVDLDRQLKKTTEELNEALSAKEEIAQRCHELDMQVAALQEEKSSLLAENQVLMERLNQSDSIEDPNSPAGRRHLQLQTQLEQLQEETFRLEAAKDDYRIRCEELEKEISELRQQNDELTTLADEAQSLKDEIDVLRHSSDKVSKLEGQVESYKKKLEDLGDLRRQVKLLEEKNTMYMQNTVSLEEELRKANAARSQLETYKRQVVELQNRLSEESKKADKLDFEYKRLKEKVDSLQKEKDRLRTERDSLKETIEELRCVQAQEGQLTTQGLMPLGSQESSDSLAAEIVTPEIREKLIRLQHENKMLKLNQEGSDNEKIALLQSLLDDANLRKNELETENRLVNQRLLEVQSQVEELQKSLQDQGSKAEDSVLLKKKLEEHLEKLHEANNELQKKRAIIEDLEPRFNNSSLKIEELQEALRKKEEEMKQMEERYKKYLEKAKSVIRTLDPKQNQGAAPEIQALKNQLQERDRLFHSLEKEYEKTKSQREMEEKYIVSAWYNMGMTLHKKAAEDRLASTGSGQSFLARQRQATSSRRSYPGHVQPATAR
modifications: biotinylated by BioID2 in cells
